# In PubChem BioAssay AID2685 (National Center for Advancing Translational Sciences (NCATS), 2010):
# Screen size: about 320,000 compounds; about 2,100 (0.66%) were called active. The shares of active, inactive and inconclusive entries below differ from those in the screen. Calls come from the whole dose curve; as a rule, active = well fitted inhibition curve with a large enough effect in the signal ratio, with a control signal flat (not every such curve was filed as active); inconclusive = small, poorly fitted or top-dose-only effect, or effect the other way, or a change in a side signal; inactive = flat fitted curve, though single readings scatter; the % refers to the signal ratio. Potencies beside an inconclusive call are fits to weak or partial responses and may not hold up.
# Experiment: qHTS Assay for Lipid Storage Modulators in Drosophila S3 Cells
# Conditions: BODIPY lipid droplet fluorescence, 18-24 h, cells fed with added oleic acid; lipid storage change, negative = inhibition: at 46.1 µM (top of the series) unless noted
# Outline: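 Laser-scanning cytometry quantifies lipid droplet accumulation (500–530 nm total intensity; droplet/cell object ratio) in oleic acid-fed (400 uM added) Drosophila S3 cells treated with a concentration series. 20 uM Triacsin C defined 100% inhibition.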
# % is set by controls: 0 for no effect and ±100 for the full control effect; potency is the fitted concentration of half-maximal effect.
Structure (SMILES),Potency,"lipid storage change, negative = inhibition"
CCn1nc(NC(=O)C(C)C)c2cc3cccc(C)c3nc21,"inconclusive: 6.51 µM [falling, partial curve]",
O=C(COC(=O)CCc1nc2ccccc2s1)Nc1cccc(S(=O)(=O)N2CCOCC2)c1,,inconclusive: -1.71%
CSc1ccccc1NC(=O)CSc1nnnn1-c1ccccc1SC,,inconclusive: 54.9%
O=C(Nc1nc(-c2cccs2)cs1)c1ccc(S(=O)(=O)N2CCCCC2)cc1,,inconclusive: 73.7%
CN(C)C(=O)C(NC(=O)c1ccccc1)=C(Cl)Cl,,inactive
O=C(NCCCN1CCOCC1)c1cccc(S(=O)(=O)Nc2cc(Cl)ccc2Cl)c1,,inconclusive: 93.3%
Cc1oc(C(C)(C)C)c(CN2CCCC2)c1C(=O)O,"inconclusive: 29.1 µM [falling, single point]",
O=C(NCCc1ccccc1)c1c(F)c(F)c(F)c(F)c1F,"inconclusive: 0.731 µM [falling, full curve]",
Nc1o[nH]c(=O)c1Cc1ccccc1,,inconclusive: 3.47%
CN(CC(=O)Nc1cccc(F)c1)C(=O)/C=C/c1cn(Cc2ccccc2)nc1-c1cccnc1,,inconclusive
CCOCCCN(C(=O)Cn1nnc(-c2ccc(C)o2)n1)C(C(=O)NC1CCCC1)c1ccco1 (stereo unspecified),,inconclusive: -75.1%
CSc1ccccc1NC(=O)c1cc(-c2cccnc2)nc2ccc(Br)cc12,"inconclusive: 29.1 µM [falling, single point]",
Cc1cc(C)c2[nH]c(=O)c(CN(Cc3ccco3)C(=S)NCC3CCCO3)cc2c1 (stereo unspecified),"inconclusive: 0.366 µM [activator, full curve, poor fit]",
Cc1cc(C)c(OCCNC(=O)c2ccccc2Sc2ccccc2C#N)c(C)c1,,inconclusive: -7.46%
C=CCOc1ccc(/C=C2/C(=N)N3N=C(CC(=O)N4CCCC4)SC3=NC2=O)cc1OC,"inconclusive: 29.1 µM [falling, single point]",
COc1ccc(/C=C2\C(=O)ON=C2c2ccccc2)cc1,,inconclusive: -7.77%
CCCOc1ccc(C(=O)NC(=S)Nc2nc3ccccc3s2)cc1,,inconclusive: 22.1%
Cc1ccc(S(=O)(=O)/N=C(/Nc2ccc3[nH]c(=O)[nH]c3c2)c2ccc(F)cc2)cc1,,inconclusive: 1.09%
COC(=O)C1=C(C(=O)OC)[C@@H]2Nc3ccccc3[C@@]23C[C@@H](C(=O)OC)N(C(=O)c2ccc(Br)cc2)C3=N1,,inconclusive: -9.46%
CCCc1cc2c(cc1NS(=O)(=O)c1ccc(CCNC(C)=O)cc1)OCO2,,inconclusive: -13.1%
Cc1nc(-c2cccc(S(=O)(=O)N3CCCC(C)C3)c2)cs1 (stereo unspecified),,inconclusive: -37.6%
CN(c1ccccc1)S(=O)(=O)c1cccc(C(=O)OCC(=O)NCCCN2CCCC2=O)c1,,inconclusive: 21.3%
CCCCN(C(=O)C(C)(C)Oc1ccc(Cl)cc1)c1c(N)n(CCC)c(=O)[nH]c1=O,"inconclusive: 9.2 µM [falling, partial curve, poor fit]",
COc1ccc(NC(=O)c2cc(S(=O)(=O)N3CCCC3)cn2C)cc1Cl,"inconclusive: 20.6 µM [falling, single point]",
CCOC(=O)c1ccc(NC(=O)c2cn(-c3ccccc3)nc2-c2ccncc2)cc1,,inconclusive: 12.7%
CCOC(=O)Cn1c(=N)n(CCOc2ccc3ccccc3c2)c2ccccc21,"inconclusive: 4.11 µM [activator, single point]",

# Four successive compounds already listed, quoted:
Structure (SMILES),Potency,"lipid storage change, negative = inhibition"
CCCOc1ccc(C(=O)NC(=S)Nc2nc3ccccc3s2)cc1,,inconclusive: 22.1%
Cc1ccc(S(=O)(=O)/N=C(/Nc2ccc3[nH]c(=O)[nH]c3c2)c2ccc(F)cc2)cc1,,inconclusive: 1.09%
COC(=O)C1=C(C(=O)OC)[C@@H]2Nc3ccccc3[C@@]23C[C@@H](C(=O)OC)N(C(=O)c2ccc(Br)cc2)C3=N1,,inconclusive: -9.46%
CCCc1cc2c(cc1NS(=O)(=O)c1ccc(CCNC(C)=O)cc1)OCO2,,inconclusive: -13.1%

# (listing goes on)

Structure (SMILES),Potency,"lipid storage change, negative = inhibition"
COc1ccc(NC(=O)Nc2ccc(F)c(F)c2)c(OC)c1,"inconclusive: 0.13 µM [falling, full curve, poor fit]",
CCOC(=O)c1c(C)[nH]c(C(=O)OCC(=O)N(CC(C)C)C2CCS(=O)(=O)C2)c1C (stereo unspecified),,inconclusive: 15.9%
Cc1nc(C)c2c(c1C(F)(F)F)-c1ccccc1C2(F)F,,inconclusive: -57.8%
O=S(=O)(NC1CCCCC1N1CCCCC1)c1ccccc1 (stereo unspecified),,inconclusive: 19.2%
CN(C)Cc1c(C(=O)Nc2ccccc2)[nH]c2ccccc12,,inconclusive: 16.8%
CCn1c(SCC(=O)NCc2ccccc2)nnc1C(CO)NC(=O)c1ccccc1 (stereo unspecified),,inconclusive: 28.2%
O=C(CC1(O)C(=O)Nc2ccccc21)c1ccc(-n2cccc2)cc1 (stereo unspecified),,inconclusive: 33.8%
COc1ccc(N2CCN(Cc3cc(=O)oc4ccc(C)cc34)CC2)cc1,,inconclusive: -8.45%
CCCc1cc(=O)[nH]c(SCC(=O)NC(=O)c2ccccc2)n1,"inconclusive: 0.82 µM [falling, full curve]",
COc1ccccc1NC(=O)CSc1nnc(CNC(=O)c2ccco2)n1C,"inconclusive: 2.31 µM [activator, full curve]",
COc1ccccc1C(=O)NCCCNC(=O)c1cnccn1,"inconclusive: 23.1 µM [activator, single point]",
NC(=O)c1cc2cc(Br)ccc2o/c1=N/NC(=O)c1cccc(F)c1,,inconclusive: 31%
O=C(NCc1ccc(Cl)cc1Cl)C1CC(=O)N(Cc2ccccc2)C1 (stereo unspecified),,inconclusive: -14.8%
O=C(CNC(c1ccccc1)c1ccccc1)Nc1c(F)cccc1F,,inconclusive: 38.8%
O=C(NCCc1c[nH]c2ccccc12)C(=O)Nc1cc2c3c(c1)CC(=O)N3CCC2,"inconclusive: 29.1 µM [activator, single point]",
COC(=O)c1ccc(CNC(=O)c2ccc3oc(C(C)C)nc3c2)cc1,,inconclusive: -20.6%
CSc1ccc(CNc2ccc(Cl)cc2)cc1,,inconclusive: 104%
O=C(NCCN1CCCc2ccccc21)C1CCC(=O)N(CCc2ccccc2)C1 (stereo unspecified),,inconclusive: -7.34%
Cc1cc(C)n(C(CC(=O)O)C(=O)O)n1 (stereo unspecified),,inconclusive: 4.18%
CCCn1c(SCC(=O)/C(C#N)=C(\C)N)n[nH]c1=O,"inconclusive: 29.1 µM [falling, single point]",
CCOc1ccc(NC(=O)CSc2nnc(-c3ccccc3)n2N)cc1,,inconclusive: 8.16%
CN(c1ccc(C(=O)Nc2ccccc2C(=O)N2CCOCC2)cc1)S(C)(=O)=O,,inactive
Cc1ccc(C)c(OCCSc2nnc(C)c(=O)[nH]2)c1,,inconclusive: 19.3%
COc1ccc(NC(=S)NNC(=O)c2cccs2)cc1,,inconclusive: -0.484%
Cc1ccc(C(C)(C)C)c(OCCCn2ccnc2)c1,"inconclusive: 0.0046 µM [activator, full curve, poor fit]",
CC1CCN(C(=O)CSc2nnc(CNc3ccc(F)cc3)n2Cc2ccco2)CC1,"inconclusive: 0.651 µM [falling, single point]",

Structure (SMILES),Potency,"lipid storage change, negative = inhibition"
O=C(NCc1ccccn1)C1CCN(S(=O)(=O)c2cccs2)CC1,,inconclusive: 4.96%
COC(=O)c1ccccc1NC(=O)c1cncc(Br)c1,,inconclusive: 8.13%
Cc1cnc2cc([N+](=O)[O-])ccc2n1,,inactive
CC1CCc2nc(/C(C#N)=C/c3ccncc3)sc2C1 (stereo unspecified),"inconclusive: 8.2 µM [activator, partial curve]",
Cc1ccc(S(=O)(=O)NNC(=O)c2ccncc2)cc1[N+](=O)[O-],,inconclusive: 167%
CCS(=O)(=O)N1CCN(S(=O)(=O)c2ccccc2[N+](=O)[O-])CC1,"inconclusive: 29.1 µM [falling, single point]",
COc1ccccc1C(CNC(=O)CNC(=O)c1ccc(C)c(C)c1)N1CCCC1 (stereo unspecified),,inconclusive: 15.1%
O=C(CN(Cc1ccco1)C(=O)c1ccc([N+](=O)[O-])cc1)Nc1ccccc1C(F)(F)F,"inconclusive: 8.2 µM [falling, partial curve, poor fit]",
CC(=O)N1CCN(c2ccc(NC(=O)COc3ccc(Cl)cc3Cl)cc2)CC1,,inconclusive: 9.36%
Cc1noc(C)c1COc1ccc(CC(=O)NCCc2ccccn2)cc1,,inconclusive: -40.4%
CCC(C)NC(=S)Nc1ccc2nc(N3CCN(CC)CC3)cc(C)c2c1 (stereo unspecified),,inconclusive: 18.2%
Nc1nc(CN2CCCCC2)cs1,"inconclusive: 1.84 µM [falling, full curve, poor fit]",
COc1cc(O)c(C(CC(=O)N2CCCC2)c2ccc(N(C)C)cc2)c(OC)c1 (stereo unspecified),,inconclusive: 4.67%
Cc1cc(C)c2cc(CNC3CCCC3)c(Cl)nc2c1,,inconclusive: 7.78%
Cc1nc(SCC(O)CCl)c([N+](=O)[O-])[nH]1 (stereo unspecified),,inactive
O=C(c1cccc(S(=O)(=O)N2CCN(c3ccccc3)CC2)c1)N1CCCCCCC1,,inconclusive: 22.3%
CSCCC(NC(=O)c1ccco1)C(=O)N(C)CC(=O)Nc1c(Cl)cccc1Cl (stereo unspecified),,inactive
CCN(CC)/C(=N/S(=O)(=O)c1ccc(C)cc1)c1ccccc1,"inconclusive: 29.1 µM [cytotoxic, single point]",
CCNc1nc(NCC)n2c(SC(C(=O)Nc3cc(Cl)cc(Cl)c3)c3ccccc3)nnc2n1 (stereo unspecified),,inconclusive: -102%
COc1ccc(/C=C/c2c(-c3ccc(OC)cc3)oc3ccc(-c4ccc(OC)cc4)cc23)cc1,"inconclusive: 1.84 µM [activator, partial curve]",
Cc1cccc(N2C(=O)CSC2c2cccnc2)c1 (stereo unspecified),"inconclusive: 0.184 µM [activator, full curve, poor fit]",
CSc1ncccc1C(=O)Nc1cccc(S(=O)(=O)N(C)c2ccccc2)c1,,inconclusive: 12.3%
COc1cc(CN2CCN(CCCc3ccccc3)CC2CCO)cc(OC)c1 (stereo unspecified),,inconclusive: 22.9%
CCOc1ccc(N(CC(=O)NCc2ccccc2Cl)S(=O)(=O)c2c(C)[nH]c(=O)[nH]c2=O)cc1,,inconclusive: 58.3%
